Data published in the supplement of paper PMC10849652.
This is one part of the list.

Amino acid sequences for entries named in this document (tags omitted). A change or cut given only in a name is not applied to a line headed by its entry.
UniProt P10301: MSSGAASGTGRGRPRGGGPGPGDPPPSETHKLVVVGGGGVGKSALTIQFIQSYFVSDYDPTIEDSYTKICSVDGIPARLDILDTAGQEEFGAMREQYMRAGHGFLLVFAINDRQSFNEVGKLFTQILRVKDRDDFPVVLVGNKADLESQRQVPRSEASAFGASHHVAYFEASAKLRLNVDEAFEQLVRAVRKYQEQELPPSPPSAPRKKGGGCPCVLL
UniProt O60942: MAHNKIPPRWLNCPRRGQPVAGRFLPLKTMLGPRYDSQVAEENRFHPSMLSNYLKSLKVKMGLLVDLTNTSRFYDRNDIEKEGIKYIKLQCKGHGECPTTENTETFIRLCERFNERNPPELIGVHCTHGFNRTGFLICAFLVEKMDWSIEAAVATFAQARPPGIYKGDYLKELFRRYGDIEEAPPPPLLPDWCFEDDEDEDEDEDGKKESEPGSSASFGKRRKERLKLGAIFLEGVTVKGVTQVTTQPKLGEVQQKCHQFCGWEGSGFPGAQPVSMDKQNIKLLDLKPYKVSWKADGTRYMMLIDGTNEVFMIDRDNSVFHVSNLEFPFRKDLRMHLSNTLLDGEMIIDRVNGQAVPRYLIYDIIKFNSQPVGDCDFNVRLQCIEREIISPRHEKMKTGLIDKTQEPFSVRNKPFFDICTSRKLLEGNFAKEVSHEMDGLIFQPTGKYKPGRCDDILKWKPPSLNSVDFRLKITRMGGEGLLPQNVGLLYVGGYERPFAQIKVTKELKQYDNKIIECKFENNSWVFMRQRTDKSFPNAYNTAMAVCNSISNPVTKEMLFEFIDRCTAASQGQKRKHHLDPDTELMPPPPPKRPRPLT
UniProt Q9H6T3, whole entry, looked up: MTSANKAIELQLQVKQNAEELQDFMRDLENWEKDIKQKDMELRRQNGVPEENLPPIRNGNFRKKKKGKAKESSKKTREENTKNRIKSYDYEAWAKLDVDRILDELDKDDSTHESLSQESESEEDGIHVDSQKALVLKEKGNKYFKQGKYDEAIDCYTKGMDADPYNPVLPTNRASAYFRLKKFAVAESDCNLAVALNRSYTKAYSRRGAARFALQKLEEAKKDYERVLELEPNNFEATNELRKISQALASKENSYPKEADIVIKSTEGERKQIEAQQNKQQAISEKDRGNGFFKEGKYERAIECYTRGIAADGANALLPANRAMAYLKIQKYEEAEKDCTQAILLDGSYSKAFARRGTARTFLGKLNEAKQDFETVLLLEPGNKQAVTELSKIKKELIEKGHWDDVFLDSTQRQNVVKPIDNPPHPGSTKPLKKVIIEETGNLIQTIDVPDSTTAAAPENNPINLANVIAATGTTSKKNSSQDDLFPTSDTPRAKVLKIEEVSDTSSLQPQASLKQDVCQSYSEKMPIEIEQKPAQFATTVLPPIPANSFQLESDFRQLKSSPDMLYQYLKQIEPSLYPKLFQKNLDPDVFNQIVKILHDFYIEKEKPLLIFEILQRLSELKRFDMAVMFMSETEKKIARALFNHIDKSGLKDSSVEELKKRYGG
UniProt Q92901: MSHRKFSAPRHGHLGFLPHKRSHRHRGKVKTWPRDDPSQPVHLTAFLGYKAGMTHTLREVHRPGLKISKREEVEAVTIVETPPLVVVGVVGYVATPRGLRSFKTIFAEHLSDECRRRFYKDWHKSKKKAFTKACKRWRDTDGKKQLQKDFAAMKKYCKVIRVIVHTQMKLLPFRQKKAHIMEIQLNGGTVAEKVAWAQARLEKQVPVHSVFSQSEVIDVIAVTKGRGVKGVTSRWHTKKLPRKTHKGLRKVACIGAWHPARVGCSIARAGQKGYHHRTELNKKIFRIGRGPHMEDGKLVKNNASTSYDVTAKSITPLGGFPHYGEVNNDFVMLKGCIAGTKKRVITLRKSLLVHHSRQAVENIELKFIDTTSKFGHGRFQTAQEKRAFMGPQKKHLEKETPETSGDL
UniProt P13489: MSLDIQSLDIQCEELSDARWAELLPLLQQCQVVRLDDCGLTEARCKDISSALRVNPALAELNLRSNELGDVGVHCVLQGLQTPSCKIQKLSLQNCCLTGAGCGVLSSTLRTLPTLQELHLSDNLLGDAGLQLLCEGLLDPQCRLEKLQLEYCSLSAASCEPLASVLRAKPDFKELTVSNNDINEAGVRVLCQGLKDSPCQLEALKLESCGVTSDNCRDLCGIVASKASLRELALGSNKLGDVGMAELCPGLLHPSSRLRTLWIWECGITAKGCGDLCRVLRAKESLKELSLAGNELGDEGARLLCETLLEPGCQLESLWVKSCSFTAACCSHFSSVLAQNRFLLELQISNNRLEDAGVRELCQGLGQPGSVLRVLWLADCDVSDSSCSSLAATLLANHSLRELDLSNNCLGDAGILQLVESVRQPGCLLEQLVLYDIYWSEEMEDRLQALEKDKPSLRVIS
UniProt P04843: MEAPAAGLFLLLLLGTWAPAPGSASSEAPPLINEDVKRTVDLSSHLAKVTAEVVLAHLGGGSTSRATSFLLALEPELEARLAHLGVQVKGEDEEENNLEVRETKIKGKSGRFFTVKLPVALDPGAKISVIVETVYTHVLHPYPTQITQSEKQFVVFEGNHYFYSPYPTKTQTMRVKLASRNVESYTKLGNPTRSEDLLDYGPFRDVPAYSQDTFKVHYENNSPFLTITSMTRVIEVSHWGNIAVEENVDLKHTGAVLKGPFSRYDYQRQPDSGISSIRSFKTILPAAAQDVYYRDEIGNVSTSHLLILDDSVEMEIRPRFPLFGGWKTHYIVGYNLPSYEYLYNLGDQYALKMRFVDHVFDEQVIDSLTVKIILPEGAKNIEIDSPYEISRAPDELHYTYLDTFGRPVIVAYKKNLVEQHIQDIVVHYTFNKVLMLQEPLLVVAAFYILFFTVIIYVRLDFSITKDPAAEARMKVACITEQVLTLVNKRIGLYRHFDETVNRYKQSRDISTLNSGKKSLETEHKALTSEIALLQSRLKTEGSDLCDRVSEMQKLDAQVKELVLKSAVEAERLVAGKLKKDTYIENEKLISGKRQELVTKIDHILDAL
UniProt P78346: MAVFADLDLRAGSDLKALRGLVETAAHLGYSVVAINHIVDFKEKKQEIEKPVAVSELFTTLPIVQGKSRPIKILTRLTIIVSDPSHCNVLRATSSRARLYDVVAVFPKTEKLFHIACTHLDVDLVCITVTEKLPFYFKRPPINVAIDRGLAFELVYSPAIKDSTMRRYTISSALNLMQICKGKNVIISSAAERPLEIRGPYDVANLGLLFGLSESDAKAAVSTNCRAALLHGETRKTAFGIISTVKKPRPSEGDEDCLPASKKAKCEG
UniProt P10155: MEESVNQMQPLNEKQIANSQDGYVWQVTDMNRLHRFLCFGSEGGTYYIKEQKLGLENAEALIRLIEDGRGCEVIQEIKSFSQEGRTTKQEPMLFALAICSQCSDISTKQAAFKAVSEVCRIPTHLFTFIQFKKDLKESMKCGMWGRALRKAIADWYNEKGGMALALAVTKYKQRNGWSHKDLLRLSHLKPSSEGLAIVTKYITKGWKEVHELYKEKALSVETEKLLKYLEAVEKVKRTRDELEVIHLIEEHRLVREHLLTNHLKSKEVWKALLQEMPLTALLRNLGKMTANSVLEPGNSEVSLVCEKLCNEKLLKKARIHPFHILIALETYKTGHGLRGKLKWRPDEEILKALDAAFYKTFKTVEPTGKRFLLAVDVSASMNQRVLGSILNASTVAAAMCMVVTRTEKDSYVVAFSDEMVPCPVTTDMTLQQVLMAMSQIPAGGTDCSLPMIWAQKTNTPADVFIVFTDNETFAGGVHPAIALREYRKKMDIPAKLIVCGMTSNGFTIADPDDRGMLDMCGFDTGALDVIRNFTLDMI
UniProt Q7LG56, whole entry, looked up: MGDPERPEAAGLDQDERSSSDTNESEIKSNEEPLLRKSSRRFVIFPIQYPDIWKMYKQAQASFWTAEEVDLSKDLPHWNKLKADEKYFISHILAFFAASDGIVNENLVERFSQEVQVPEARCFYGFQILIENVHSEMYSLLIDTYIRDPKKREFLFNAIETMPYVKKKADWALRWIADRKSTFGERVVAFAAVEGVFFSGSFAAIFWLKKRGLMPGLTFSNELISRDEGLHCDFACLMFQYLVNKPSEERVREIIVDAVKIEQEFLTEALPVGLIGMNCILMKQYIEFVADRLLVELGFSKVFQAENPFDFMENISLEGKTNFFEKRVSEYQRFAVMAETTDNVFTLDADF
UniProt O75695: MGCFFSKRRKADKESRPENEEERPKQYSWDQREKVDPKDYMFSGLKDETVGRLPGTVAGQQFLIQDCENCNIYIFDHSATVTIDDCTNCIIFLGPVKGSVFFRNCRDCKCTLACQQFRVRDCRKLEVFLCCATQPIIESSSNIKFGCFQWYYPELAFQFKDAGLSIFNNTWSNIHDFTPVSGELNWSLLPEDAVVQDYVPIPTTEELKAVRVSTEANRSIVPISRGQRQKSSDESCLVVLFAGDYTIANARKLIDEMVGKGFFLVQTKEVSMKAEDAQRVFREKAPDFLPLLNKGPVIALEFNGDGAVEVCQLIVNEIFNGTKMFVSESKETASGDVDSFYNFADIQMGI
UniProt O75818: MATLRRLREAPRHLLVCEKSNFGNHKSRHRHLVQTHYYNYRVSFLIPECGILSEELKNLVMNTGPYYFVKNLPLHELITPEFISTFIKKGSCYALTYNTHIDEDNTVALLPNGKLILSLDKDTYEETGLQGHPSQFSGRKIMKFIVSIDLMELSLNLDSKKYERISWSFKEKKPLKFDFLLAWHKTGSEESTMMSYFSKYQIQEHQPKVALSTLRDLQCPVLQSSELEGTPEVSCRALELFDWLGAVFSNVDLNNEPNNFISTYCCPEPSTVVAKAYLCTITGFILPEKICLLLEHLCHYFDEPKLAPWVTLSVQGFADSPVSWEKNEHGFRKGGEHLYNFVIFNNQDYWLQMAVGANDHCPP

Compound: CS(=O)(=O)CCNCc1ccc(-c2ccc3ncnc(Nc4ccc(OCc5cccc(F)c5)c(Cl)c4)c3c2)o1 [lapatinib]
Experiment: log2 fold change, soluble protein after heating vs DMSO (PISA); higher = thermal stabilisation; K562 cells, 10 uM, 30 min; active = over 0.2 and 3.5 SD of the protein, either way, in both replicates (recomputed)
Summary of the method: (§1)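 For each measurement, 10 μM compound was applied for 30 min to K562 cells at 2×10^6 cells/mL. Aliquots were heated for 3 min across 48°C-58°C, pooled, and extracted in PBS with 0.5% NP-40 at 4°C; the supernatant after 21,000xg for 90 min was soluble protein. This was quantified by TMTpro 16plex LC-MS/MS with channel sums equalised, and thermal stability was reported relative to control samples from duplicates, on a log2 fold-change scale.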

Target	log2 fold change
RPS6 (UniProt P62753)	inactive: 0.311
RRAS (UniProt P10301)	inactive: -0.029
RPL7 (UniProt P18124)	inactive: 0.384
RPL13A (UniProt P40429)	inactive: 0.407
RPL26 (UniProt P61254)	inactive: 0.22
RPS29 (UniProt P62273)	inactive: 0.043
RNGTT (UniProt O60942)	inactive: 0.045
RPAP3 (UniProt Q9H6T3)	inactive: 0.022
RPL3L (UniProt Q92901)	inactive: 0.315

Compound: CS(=O)(=O)N1CCN(Cc2cc3nc(-c4cccc5[nH]ncc45)nc(N4CCOCC4)c3s2)CC1 [pictilisib]
Experiment: as above
Summary of the method: as §1

Target	log2 fold change
RPL9 (UniProt P32969)	inactive: -0.31
RNH1 (UniProt P13489)	inactive: 0.051
RPL24 (UniProt P83731)	inactive: -0.202
RPS17 (UniProt P08708)	inactive: -0.07
RPL17 isoform 3 (UniProt P18621)	inactive: -0.019
RPN1 (UniProt P04843)	inactive: -0.011
RPP30 isoform 2 (UniProt P78346)	inactive: -0.083
RPL15 (UniProt P61313)	inactive: -0.221
RO60 (UniProt P10155)	inactive: 0.067
RRM2B isoform 6 (UniProt Q7LG56)	inactive: 0.075
RP2 (UniProt O75695)	inactive: 0.022
RPP40 (UniProt O75818)	inactive: 0.022
RPL36 (UniProt Q9Y3U8)	inactive: -0.156
RPL11 (UniProt P62913)	inactive: -0.206

A few values from the list:
RPP40 (UniProt O75818) | log2 fold change: inactive: 0.022
RPS17 (UniProt P08708) | log2 fold change: inactive: -0.07
